Patent publication US10905770B2, “Topical delivery of therapeutic agents using cell-penetrating peptides for the treatment of age-related macular degeneration and other eye diseases” (priority 2017, dated 2021)

Protocol: Lutein was dissolved in DMSO (10 mg/mL) and titrated into water. […] As a proxy for topical delivery into the eye by eye drop, 50 μL of lutein plus hexa-arginine (SEQ ID NO: 258) or lutein alone was applied to one side of the outer shell membrane of a chicken egg, and the material that crossed the membrane in water was collected after 2 minutes. The level of lutein was measured by absorbance. The experiment was conducted three times (n=3).
Zeaxanthin was dissolved in DMF (10 mg/mL) and titrated into water. […] The level of zeaxanthin was measured by absorbance. […]
Lutein was dissolved in DMSO (10 mg/mL) and titrated into water, zeaxanthin was dissolved in DMF (10 mg/mL) and titrated into water, and then lutein and zeaxanthin were mixed in a 1:1 ratio. […] The level of lutein and zeaxanthin was measured by absorbance. […]
Dexamethasone was dissolved in DMSO and titrated into water. […] The presence of dexamethasone was detected by electrospray mass spectroscopy.
Tacrolimus was dissolved in DMSO and titrated into water. […] The presence of tacrolimus was detected by electrospray mass spectroscopy.
Adalimumab was fluorescently tagged and purified. […] The level of adalimumab was measured by fluorescence. […]

crossing of the egg shell membrane (electrospray mass spectroscopy): did not cross
Compound: CC(C)c1c(C(=O)Nc2ccccc2)c(-c2ccccc2)c(-c2ccc(F)cc2)n1CC[C@@H](O)C[C@@H](O)CC(=O)O [atorvastatin, reference compound]
